Reference: paper PMC10163288
Some of the results follow.

B1: il2ra_site2_3nfp_normal_mot_HHH_b1_00086_000000221_0001_38_54_H_._HHH_b2_06926_0001_0000100006_0000001_0 (protein)
chain: SSSSDHREEYLRAALLLLELAVEEGNHELARRHTQAARALAESLHDEEILEELERLIEELESSSS
B2: il2ra_site2_3nfp_sap_13_mot_HHH_b2_00482_000000184_0001_1_21_H_._49678f45da0a336f03cbe5a93813d6e2_0001_1_af2_0001_0000300012_0000001_0_0001_af2pred_0001_1_af2pr … (protein)
chain: SSSSSSSDEEEVEELLEEAKRIDDEHEFFAVLSLAAELAFRSDNEELERLVKEVARRKRSSSSSS
B3: il2ra_site1_2b5i_normal_mot_HHH_b1_08075_000000261_0001_1_20_H_._HHH_b1_04452_0001_0000200011_0000001_1_af2pred_dldesign_0_af2pred (protein)
chain: SSSLREILEEAERLHKRVYELEEKKNKEEIAKIKERLKELYEKTKEPALKEALEDAEEALKSSSS
B4: il2ra_site2_2erj_sap_24_mot_HHH_b1_03026_000000045_0001_39_53_H_._HHH_b1_04773_0001_0000400017_0000001_0_0001_af2pred_0001_1_af2pred_swapped (protein)
chain: SSSSDELEQVVEELVEELGLDEEAKKQLEAAVRNLKEAGFSEEMAELYLEIAAENLARLLSSSSS
B5: il2ra_site1_3nfp_sap_25_mot_HHH_b1_03725_af2_000000070_0001_39_57_H_._HHH_b1_00503_af2_0001_0000100001_0000001_0_0001 (protein)
chain: SSSSDELAREIDRLLKRLAKAIREGDEELIEKLEERIEELIEEANDELAQRLLEQLRERLSSSSS
B6: il2ra_site2_2erj_sap_27_mot_HHH_b1_06157_000000296_0001_22_38_H_._HHH_b2_02108_0001_0000700018_0000001_0_0001 (protein)
chain: SSSSDERLKELYELAVKITHALARNDEELLKELIKEAKELAEELDSPTAREIVESLERLLKSSSS
B7: il2ra_site2_3nfp_sap_12_mot_HHH_b1_06586_000000201_0001_1_18_H_._HHH_b2_06897_af2_0001_0000300008_0000001_0_0001 (protein)
chain: SSSSSSDREERAQELLEEAKHVDEEEARFLVMAAANLAWELGDEELAKEIRELIQELWSSSSSSS
B8: il2ra_site1_2b5i_normal_mot_HHH_b1_02271_000000068_0001_1_16_H_._HHH_b2_00382_0001_0000200012_0000001_0_af2pred_dldesign_0_af2pred (protein)
chain: SSSSSDPLAEARRVVEEARELAKTDRRAALELLNEAYKYFGEKDDEEAMDLLEEAAREILSSSSS
B9: il2ra_site2_3nfp_sap_16_mot_HHH_b2_08046_000000127_0001_20_37_H_._8323a3979fe47b92d96c7c6278d960ae_0001_0001_0000100012_0000001_0_0001_af2pred_0001_af2pred_swap … (protein)
chain: SSSSDEAERLVERAEELLEEGDLEEAERILKEARKQALEKGDHELFARILELLELLERLGSSSSS
B10: il2ra_site2_3nfp_normal_mot_HHH_b1_00660_af2_000000090_0001_40_57_H_._HHH_b1_02871_0001_0000400018_0000001_0 (protein)
chain: SSSSSDEEELEELKERLEELERRGDEEKIEKVAQRLFSLAAQLNDFEAFALAQEVRARLLSSSSS
B11: il2ra_site1_3nfp_sap_16_mot_HHH_b2_05538_af2_000000197_0001_20_36_H_._a018c15928f351c43b00908d5a7ba3e0_0001_0001_0000100019_0000001_0_0001 (protein)
chain: SWKALERLLEQALRVPPEEAEEILREVREEAGGDPKRILELLLKLAEELGNEAARKHLELTLRQW
B12: il2ra_site1_3nfp_sap_16_mot_HHH_b1_05070_af2_000000282_0001_43_57_H_._HHH_b2_06865_0001_0000600040_0000001_0_0001 (protein)
chain: SAEEAVEWLVRQAVERNNPELLRRILRALEWFHGDPEEAEEALHELIEKVLGDPEEAERLVREAK
B13: il2ra_site1_1z92_sap_13_mot_15580975d4dd9e5733d814788d639b64_0001_000000137_0001_1_14_H_._HHH_b2_03613_af2_0001_0000600030_0000001_0_0001_af2pred_0001_af2pred_1 (protein)
chain: NKFEEIIKKNLRSIDDPVAEELLRLLEELERGELPPEELEELLERILKETGNPLAKLVIDYLRRR
B14: il2ra_site2_3nfp_sap_13_mot_HHH_b2_05843_000000230_0001_1_19_H_._HHH_b1_07298_0001_0000200016_0000001_0_0001 (protein)
chain: SSSSTAEQAAETLLETLEEEGDEESFEELQELLEKLEETGDPRDALELYELILEIFERLQSSSSS
B15: il2ra_site1_2b5i_sap_10_mot_HHH_b2_04910_000000118_0001_1_19_H_._HHH_b1_07968_af2_0001_0000100002_0000001_0_0001_af2pred_dldesign_0_af2pred (protein)
chain: SSSSSSAKRAEARALIERAKKEKDRRKALLLLNEAYKIAGELDDEELAAEAEELYRQLLSSSSSS
B16: il2ra_site1_1z92_normal_mot_HHH_b1_04329_000000069_0001_1_19_H_._HHH_b2_03912_0001_0000100007_0000001_0_af2pred_0001_af2pred_1 (protein)
chain: SSSSIELIRFADEVVLRLAEEYKLSDEDAQYLAEVAIELIRRGYSEEEIEEILQEEAEKLSSSSS
B17: il2ra_site2_2erj_sap_25_mot_e3be008b04150b5953e9f850c9479793_0001_000000253_0001_15_29_H_._HHH_b1_01649_af2_0001_0001400018_0000001_0_0001 (protein)
chain: SSSSDELRRLYELAVLLAHLLARGDREEAEEVLKEFEELAEELDSRNAEELVERVEKALDSSSSS
B18: il2ra_site2_3nfp_sap_25_mot_HHH_b1_04264_000000089_0001_1_18_H_._HHH_b1_05500_af2_0002_0000100003_0000001_0_0001 (protein)
chain: SVEEVLKELKRSGDPRLQELAEEVEELLRRGIPPEEIIEKLAREAYEENDHDVFAVANSLMKLWA
B19: il2ra_site2_2erj_normal_mot_HHH_b2_02572_000000008_0001_42_59_H_._HHH_b2_06294_0001_0000100005_0000001_0 (protein)
chain: SSSSTEEWEETAKILLRIQEAFEKGNPEEAEELIERLEQELRELGNEELLRYLEYLRRDLSSSSS
B20: il2ra_site1_3nfp_sap_18_mot_HHH_b2_02066_af2_000000034_0001_1_16_H_._HHH_b2_06949_0001_0000600054_0000001_0_0001_af2pred_0001_af2pred (protein)
chain: SSSSSDEERKRALELLFRAAHVSDPEEVKRLLEEALELAEEANNEVTQRRIEIDLRILERSSSSS
B21: il2ra_site2_3nfp_normal_mot_HHH_b1_04031_af2_000000136_0001_1_21_H_._HHH_b1_01430_0001_0000400014_0000001_0 (protein)
chain: SSSSDKEKLERLIELALESLESAGDPEAVRRVEELLEEFREEGDPRYVLEVYEIAREVYEKSSSS
B22: il2ra_site1_2b5i_normal_mot_HHH_b1_02271_000000068_0001_1_16_H_._HHH_b2_07217_0001_0000600035_0000001_0_af2pred_dldesign_0_af2pred (protein)
chain: SSSSEAERLAAEALREAEALKAQGKRREALKVLDEAKKKVDELDDEAAAARLEDYALELFKSSSS
B23: il2ra_site1_1z92_sap_10_mot_ems_4hC_799_0001_000000043_0001_18_33_H_._5202e8ad13ee9de4b1286d7ece000ddb_0001_af2_0001_0000400030_0000001_0_0001 (protein)
chain: SSSSSELEEFAREVVEELVKEFNLSERQQRSLEQLARMAVEMGADEEDIEKALRRFAEFLGSSSS
B24: il2ra_site2_3nfp_normal_mot_HHH_b1_05627_af2_000000038_0001_43_56_H_._HHH_b1_01339_0001_0000600015_0000001_0 (protein)
chain: SSSSDKAEEYVRVALELAEEAIEAGDEESARRQLEAALLLARDLGDPELEERVQELLEELRSSSS

Biological target: il2ra, P01589
Test: yeast display titration

Apparent Kd, inactive:
B1 no binding seen
B2 no binding seen
B3 no binding seen
B4 no binding seen
B5 no binding seen
B6 no binding seen
B7 no binding seen
B8 no binding seen
B9 no binding seen
B10 no binding seen
B11 no binding seen
B12 no binding seen
B13 no binding seen
B14 no binding seen
B15 no binding seen
B16 no binding seen
B17 no binding seen
B18 no binding seen
B19 no binding seen
B20 no binding seen
B21 no binding seen
B22 no binding seen
B23 no binding seen
B24 no binding seen

2 successive entries already listed, quoted:
Apparent Kd, inactive:
B10 no binding seen
B11 no binding seen
